Laboratory results taken from the supplement of paper PMC4604168 (melanoma cell lines).
The list shows a part of the results. Repeats are few or missing, and single values can be far off.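 The apoptosis fraction was the count of cleaved-PARP antibody-stained nuclei relative to all DNA-stained nuclei, imaged in 1,536-well plates. Screening doses were set so most cells survived, and baseline and induced cleaved-PARP levels vary greatly across cell lines.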

What was measured:
Experiment in all cases: cleaved PARP positive nuclei fraction relative to DMSO control; melanoma cells; higher = more apoptosis
Details in all cases: library dose: low library concentration; 72 h
[1] = test system: MZ2-MEL
[2] = test system: MeWo
[3] = test system: RPMI7951
[4] = test system: RVH-421
[5] = test system: SkMel28
[6] = test system: SkMel2
[7] = test system: SkMel30
[8] = test system: SkMel5
[9] = test system: UACC257
[10] = test system: UACC62
[11] = test system: WM115
[12] = test system: WM1716
[13] = test system: WM1745
[14] = test system: WM3526
[15] = test system: WM3619
[16] = test system: WM451Lu

Structure (SMILES)	cleaved PARP positive nuclei fraction [1] [%]	cleaved PARP positive nuclei fraction [2] [%]	cleaved PARP positive nuclei fraction [3] [%]	cleaved PARP positive nuclei fraction [4] [%]	cleaved PARP positive nuclei fraction [5] [%]	cleaved PARP positive nuclei fraction [6] [%]	cleaved PARP positive nuclei fraction [7] [%]	cleaved PARP positive nuclei fraction [8] [%]	cleaved PARP positive nuclei fraction [9] [%]	cleaved PARP positive nuclei fraction [10] [%]	cleaved PARP positive nuclei fraction [11] [%]	cleaved PARP positive nuclei fraction [12] [%]	cleaved PARP positive nuclei fraction [13] [%]	cleaved PARP positive nuclei fraction [14] [%]	cleaved PARP positive nuclei fraction [15] [%]	cleaved PARP positive nuclei fraction [16] [%]
O=C(O)c1ccc2c(c1)nc(Nc1cccc(Cl)c1)c1ccncc12 + NC(=O)Nc1cc(-c2cccc(F)c2)sc1C(=O)N[C@H]1CCCNC1 [AZD7762] (first compound 0.4 µM, partner dose 0.02 µM)	66.4	65.3	160	72	96.6	108	60.2	58.7	156	56.7	128	306	85.6	164	84.4	64.8
CNC(=O)c1cc(Oc2ccc(NC(=O)Nc3ccc(Cl)c(C(F)(F)F)c3)cc2)ccn1 [sorafenib] + COc1ccc(-c2ccc3c(N4CCOCC4)nc(N4C[C@@H](C)O[C@@H](C)C4)nc3n2)cc1CO [KU0063794] (first compound 0.4 µM, partner dose 0.02 µM)	185	49.1	70.8	188	623	130	94.7	84.2	155	110	168	129	96.5	78.9	95.7	155
Cn1c(=O)n(-c2ccc(C(C)(C)C#N)cc2)c2c3cc(-c4cnc5ccccc5c4)ccc3ncc21 + Cn1cncc1[C@@](N)(c1ccc(Cl)cc1)c1ccc2c(c1)c(-c1cccc(Cl)c1)cc(=O)n2C [tipifarnib] (first compound 0.004 µM, partner dose 0.01 µM)	29.8	33.4	100	120	214	141	92.5	92.2	133	291	248	114	214	66.2	116	398
C=C(c1ccc(C(=O)O)cc1)c1cc2c(cc1C)C(C)(C)CCC2(C)C [Bexarotene] + COc1ccc(COc2ccc(Cc3cnc(N)nc3N)cc2OC)cc1 [GW2580] (first compound 2 µM, partner dose 1 µM)	131	72.4	98.9	71.3	221	46.9	110	174	141	55.8	73	669	94.7	155	107	12.3
Cc1cc(Nc2cc(N3CCN(C)CC3)nc(/C=C/c3ccccc3)n2)n[nH]1 + COc1cc2c(Oc3ccc4[nH]c(C)cc4c3F)ncnc2cc1OCCCN1CCCC1 [cediranib] (first compound 0.04 µM, partner dose 0.4 µM)	121	102	100	20.2	102	60.7	65.9	79.1	129	232	50.8	166	134	118	101	101
Nc1nc(F)nc2c1ncn2[C@@H]1O[C@H](CO)[C@@H](O)[C@@H]1O [fludarabine] + CCCCCCCCCCCC1=C(O)C(=O)C=C(O)C1=O [Embelin] (first compound 0.2 µM, partner dose 1.2 µM)	56.1	194	98.1	166	88.4	3120	2620	132	447	43.9	61.7	180	73.9	890	89.3	197
C=C(c1ccc(C(=O)O)cc1)c1cc2c(cc1C)C(C)(C)CCC2(C)C [Bexarotene] + O=c1cc(-c2cccc3c2Sc2ccccc2S3)oc(N2CCOCC2)c1 [KU55933] (first compound 2 µM, partner dose 1 µM)	198	21.8	103	149	229	90.9	147	267	20.2	106	144	38.8	85.7	78.3	88.8	99.5
CS(=O)(=O)CCNCc1ccc(-c2ccc3ncnc(Nc4ccc(OCc5cccc(F)c5)c(Cl)c4)c3c2)o1 [lapatinib] + NCC(=O)Nc1ccc(-n2nc(C(F)(F)F)cc2-c2ccc3c(ccc4ccccc43)c2)cc1 [OSU03012] (first compound 0.8 µM, partner dose 1 µM)	108	182	80.8	50.3	190	214	105	47.7	199	43.4	115	53.4	104	94.9	66.8	88.5
Cn1c(=O)n(-c2ccc(C(C)(C)C#N)cc2)c2c3cc(-c4cnc5ccccc5c4)ccc3ncc21 + O=C(O)C(=O)Nc1sc2c(c1C(=O)O)CCNC2 [TCS401] (first compound 0.004 µM, partner dose 1.66667 µM)	53.7	62.3	65.3	55	94	127	109	138	141	115	59.5	167	94.6	185	77.8	71.8
Nc1ncn([C@H]2C[C@H](O)[C@@H](CO)O2)c(=O)n1 [decitabine] + COc1cc2c(Oc3ccc4[nH]c(C)cc4c3F)ncnc2cc1OCCCN1CCCC1 [cediranib] (first compound 0.1 µM, partner dose 0.4 µM)	89.6	385	104	246	122	89.2	127	123	99.2	80	212	44.6	112	114	82.6	112
Nc1ccn([C@@H]2O[C@H](CO)[C@@H](O)C2(F)F)c(=O)n1 [gemcitabine] + CCCCCCCCCCCC1=C(O)C(=O)C=C(O)C1=O [Embelin] (first compound 0.0004 µM, partner dose 1.2 µM)	89.3	64.2	121	161	73.3	51.8	21.2	158	94.1	78	142	41.9	116	58.3	101	39
C[C@@H](Oc1cc(-c2cnn(C3CCNCC3)c2)cnc1N)c1c(Cl)ccc(F)c1Cl [Crizotinib] + c1cc(-c2cnn3cc(-c4ccc(OCCN5CCCCC5)cc4)cnc23)ccn1 [Dorsomorphin] (first compound 0.2 µM, partner dose 0.4 µM)	73.9	30	224	154	55.2	83.3	24.6	99.1	181	287	204	47.8	124	171	85.4	73.9
Nc1ncn([C@H]2C[C@H](O)[C@@H](CO)O2)c(=O)n1 [decitabine] + COC(=O)c1sccc1S(=O)(=O)Nc1ccc(Nc2ccccc2)cc1OC [GSK0660] (first compound 0.1 µM, partner dose 1 µM)	86.9	80.5	159	106	109	82.2	83.6	71	95.5	157	210	158	91.2	80	112	74.6
Nc1nc(F)nc2c1ncn2[C@@H]1O[C@H](CO)[C@@H](O)[C@@H]1O [fludarabine] + O=C(Nc1ccccc1)c1cc([N+](=O)[O-])ccc1Cl [GW9662] (first compound 0.2 µM, partner dose 2 µM)	66.6	472	124	26.7	158	470	182	297	147	97.6	79.8	155	79.9	764	83.2	448
CN1CCN(c2ccc3nc(-c4c(N)c5c(F)cccc5[nH]c4=O)[nH]c3c2)CC1 [Dovitinib] + O=c1cc(-c2cccc3c2Sc2ccccc2S3)oc(N2CCOCC2)c1 [KU55933] (first compound 0.1 µM, partner dose 1 µM)	155	98.9	92.5	129	134	79	54.4	151	136	145	76.8	29.7	114	76	83.5	93
CN1CCN(c2ccc3nc(-c4c(N)c5c(F)cccc5[nH]c4=O)[nH]c3c2)CC1 [Dovitinib] + C=CCn1c(=O)c2cnc(Nc3ccc(N4CCN(C)CC4)cc3)nc2n1-c1cccc(C(C)(C)O)n1 [MK1775] (first compound 0.1 µM, partner dose 0.02 µM)	62.3	120	27.6	101	40.4	74.2	67.8	77.9	63.2	120	209	104	134	65.3	122	174
C[C@@H](Oc1cc(-c2cnn(C3CCNCC3)c2)cnc1N)c1c(Cl)ccc(F)c1Cl [Crizotinib] + Cc1ccc(NC(=O)c2cccc(N(C)C)c2)cc1NC(=O)c1ccc(O)cc1 [ZM336372] (first compound 0.2 µM, partner dose 2 µM)	55.3	52.1	48.3	103	60.2	101	76.8	82.4	67.5	123	81	71.7	109	169	90.7	168
CNC(=O)c1cc(Oc2ccc(NC(=O)Nc3ccc(Cl)c(C(F)(F)F)c3)cc2)ccn1 [sorafenib] + NCC(=O)Nc1ccc(-n2nc(C(F)(F)F)cc2-c2ccc3c(ccc4ccccc43)c2)cc1 [OSU03012] (first compound 0.4 µM, partner dose 1 µM)	157	354	109	118	142	185	111	146	51.8	80.2	96.7	133	206	108	79.3	48.1
CNC(=O)c1cc(Oc2ccc(NC(=O)Nc3ccc(Cl)c(C(F)(F)F)c3)cc2)ccn1 [sorafenib] + OCCn1cc(-c2cnc3nnn(Cc4ccc5ncccc5c4)c3n2)cn1 [PF04217903] (first compound 0.4 µM, partner dose 1 µM)	146	22.5	140	113	37.1	37.7	54.4	66.1	32.8	98.2	49	92	111	178	80	155

Shown as a markdown table: entries from further up.

| Structure (SMILES) | cleaved PARP positive nuclei fraction [1] [%] | cleaved PARP positive nuclei fraction [2] [%] | cleaved PARP positive nuclei fraction [3] [%] | cleaved PARP positive nuclei fraction [4] [%] | cleaved PARP positive nuclei fraction [5] [%] | cleaved PARP positive nuclei fraction [6] [%] | cleaved PARP positive nuclei fraction [7] [%] | cleaved PARP positive nuclei fraction [8] [%] | cleaved PARP positive nuclei fraction [9] [%] | cleaved PARP positive nuclei fraction [10] [%] | cleaved PARP positive nuclei fraction [11] [%] | cleaved PARP positive nuclei fraction [12] [%] | cleaved PARP positive nuclei fraction [13] [%] | cleaved PARP positive nuclei fraction [14] [%] | cleaved PARP positive nuclei fraction [15] [%] | cleaved PARP positive nuclei fraction [16] [%] |
| --- | --- | --- | --- | --- | --- | --- | --- | --- | --- | --- | --- | --- | --- | --- | --- | --- |
| Nc1nc(F)nc2c1ncn2[C@@H]1O[C@H](CO)[C@@H](O)[C@@H]1O [fludarabine] + O=C(Nc1ccccc1)c1cc([N+](=O)[O-])ccc1Cl [GW9662] (first compound 0.2 µM, partner dose 2 µM) | 66.6 | 472 | 124 | 26.7 | 158 | 470 | 182 | 297 | 147 | 97.6 | 79.8 | 155 | 79.9 | 764 | 83.2 | 448 |
| C[C@@H](Oc1cc(-c2cnn(C3CCNCC3)c2)cnc1N)c1c(Cl)ccc(F)c1Cl [Crizotinib] + Cc1ccc(NC(=O)c2cccc(N(C)C)c2)cc1NC(=O)c1ccc(O)cc1 [ZM336372] (first compound 0.2 µM, partner dose 2 µM) | 55.3 | 52.1 | 48.3 | 103 | 60.2 | 101 | 76.8 | 82.4 | 67.5 | 123 | 81 | 71.7 | 109 | 169 | 90.7 | 168 |
